Structures can show the parent of a compound that is named as a salt. This is one part of the list. This data set is noisy: repeats of one test often differ as much as different tests do.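 The cells are human U-2 OS cells that stably carry a GFP sensor with a nuclear import signal and a classical export signal. They were transfected to make PR50, a 50-repeat proline–arginine dipeptide protein from the ALS/FTD gene C9ORF72. Each well's nuclear-minus-cytoplasm GFP signal was scaled from in-plate DMSO (low) to PR-only wells (high), then scored against the other test wells on the plate; compounds scoring well below zero were called hits that reverse the PR effect.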
Tested on: U-2 OS NCT-C biosensor cells expressing PR50
Experiment: Z-score of normalised NCT-C biosensor translocation index in PR50-expressing cells; higher = more nuclear biosensor (more disrupted nuclear export)
Details: 3 µM; 24 h

Structure (SMILES) | Z-score
CC1=NCCc2c1[nH]c1cc(O)ccc21 [Harmalol·HCl·2H2O] | inactive: -0.302
C=C[C@H]1CN2CC[C@H]1C[C@H]2[C@H](O)c1ccnc2ccccc12 [(-)-Cinchonidine] | inactive: 0.198
COc1ccc2c(c1)[C@]13CCCC[C@@H]1[C@H](C2)N(C)CC3 [Dextromethorphan] | inactive: 0.354
COC[C@H]1OC(=O)c2coc3c2[C@@]1(C)C1=C(C3=O)[C@@H]2CCC(=O)[C@@]2(C)C[C@H]1OC(C)=O [Wortmannin from Penicillium funiculosum] | inactive: -0.385
Clc1cnc(Oc2ccc(Oc3ncc(Cl)cc3Cl)cc2)c(Cl)c1 | inactive: -0.966
C=C[C@H]1CN2CC[C@H]1C[C@@H]2[C@@H](O)c1ccnc2ccccc12 [(+)-Cinchonine] | inactive: -0.52
CC(Cc1ccc(O)cc1)NCC(O)c1cc(O)cc(O)c1 (stereo not given) [Fenoterol hydrobromide] | inactive: -1.06
C1CCc2nnnn2CC1 [Pentylenetetrazole] | inactive: 0.408
Cn1cnc(CCN)c1 [1-Methylhistamine dihydrochloride] | inactive: -0.679
OC[C@@H]1CCCN2CCCC[C@H]12 [Lupinine] | inactive: -0.166
CCCN1CCC[C@@H]2Cc3nc(N)ncc3C[C@H]21 [Quinelorane dihydrochloride] | inactive: 0.351
CNCC(O)c1ccc(O)cc1 (racemic) [(+-)-Synephrine] | inactive: -1.01
COCCCn1c(N)c(C(=O)NC2CCCC2)c2nc3ccccc3nc21 | inactive: -1.84
CC(C)=CCCC1=CC(=O)c2c(O)ccc(O)c2C1=O [Deoxyshikonin] | inactive: 0.806
O=c1[nH]c2ccccc2n1CCCN1CCC(n2c(=O)[nH]c3cc(Cl)ccc32)CC1 [Domperidone] | inactive: -1.08
COc1ccc(CCNCc2ccc(OC)c3ccccc23)cc1 | inactive: -0.416
C[C@H]1CCC[C@@H](O)CCCCCc2cc(O)cc(O)c2C(=O)O1 [β-Zearalanol] | inactive: 0.509
CC(C)(C)c1cc(C(C)(C)C)c2c(c1)C(O)(C(F)(F)F)C(=O)O2 (racemic) | inactive: 0.161
CN1[C@@H]2CCC[C@H]1CC(=O)C2 [Pseudopelletierine·HCl] | inactive: 0.0175
N[C@@H](Cn1oc(=O)[nH]c1=O)C(=O)O [Quisqualic acid] | inactive: -0.349
N[C@@H](Cn1oc(=O)[nH]c1=O)C(=O)O [(+)-Quisqualic acid] | inactive: 0.318
NC(N)=NOCC[C@H](N)C(=O)O [L-Canavanine] | inactive: 1.28

Structure (SMILES) | Z-score
NC(N)=NOCC[C@H](N)C(=O)O [L-Canavanine sulfate] | inactive: -0.651
S=C(NC1CCCCC1)N1CCC(c2cnc[nH]2)CC1 [Thioperamide maleate] | inactive: -0.635
CCCC(=O)O[C@@H]1[C@@H](C)[C@@]2(O)[C@@H](C=C(CO)C[C@]3(O)C(=O)C(C)=C[C@@H]23)[C@@H]2C(C)(C)[C@]12OC(=O)CCC [Phorbol 12,13-dibutyrate] | inactive: 0.682
C=C(C)[C@H]1CN[C@H](C(=O)O)[C@H]1CC(=O)O [Kainic acid] | inactive: -0.0179
O=C(N[C@H]1CN2CCC1CC2)c1c[nH]c2ccsc2c1=O | inactive: -0.498
O=C(N[C@H]1CN2CCC1CC2)c1ccc(Cl)cc1 | inactive: 0.572
O=[N+]([O-])c1ccc2nc(N3CCNCC3)ccc2c1 [Quipazine, 6-nitro-  , maleate] | inactive: -0.0405
N#Cc1ccc(N2CCN(C(=O)COc3ccc4[nH]cc(CCN)c4c3)CC2)cc1 [Donitriptan monohydrochlorid e] | inactive: -0.113
CC(C)[C@@H]1NC(=O)[C@H](C)OC(=O)[C@@H](C(C)C)NC(=O)[C@@H](C(C)C)OC(=O)[C@H](C(C)C)NC(=O)[C@H](C)OC(=O)[C@@H](C(C)C)NC(=O)[C@@H](C(C)C)OC(=O)[C@H](C(C)C)NC(=O)[C@H](C)OC(=O)[C@@H](C(C)C)NC(=O)[C@@H](C(C)C)OC1=O [Valinomycin] | inactive: -0.391
CCCCCCC(=O)O[C@H]1CC[C@H]2[C@@H]3CCC4=CC(=O)CC[C@]4(C)[C@H]3CC[C@]12C [Testosterone Enanthate] | inactive: -0.267
CC1=CC(=O)c2c(O)cccc2C1=O [Plumbagin] | inactive: -0.898
CCN1C[C@]2(C)CC[C@H](OC)[C@@]34C1[C@]1(OCO[C@@]15C[C@H](OC)[C@H]1C[C@]3(O)[C@@H]5[C@H]1OC)[C@@H](OC(C)=O)[C@H]24 [Deltaline] | inactive: -0.584
CC(C)=CCOc1c2occc2cc2ccc(=O)oc12 [Imperatorin] | inactive: -0.563
N[C@@H](Cc1ccc(N(CCCl)CCCl)cc1)C(=O)O [Melphalan] | inactive: 0.222
CC(Cc1ccc(OCC(=O)O)cc1)NCC(O)c1cccc(Cl)c1 (stereo not given) | inactive: 3.6
CC[C@H]1CN2CCc3cc(OC)c(OC)cc3[C@@H]2C[C@@H]1C[C@H]1NCCc2cc(O)c(OC)cc21 [Cephaeline·HBr] | inactive: -0.546
C=CCN1C[C@H](C)N([C@H](c2ccc(C(=O)N(CC)CC)cc2)c2cccc(OC)c2)C[C@H]1C | inactive: -0.275
N=C(N)NN [Aminoguanidine hemisulfate] | inactive: 0.653
N=C(N)NN [Aminoguanidine hydrochloride] | inactive: -0.161
CC(C)N(CCC(C(N)=O)(c1ccccc1)c1ccccn1)C(C)C (stereo not given) [Disopyramide phosphate] | inactive: -0.0303
CC(C)N(CCC(C(N)=O)(c1ccccc1)c1ccccn1)C(C)C (stereo not given) [Disopyramide] | inactive: 0.436
C[N+]1([O-])[C@@H]2CC(OC(=O)[C@H](CO)c3ccccc3)C[C@H]1[C@@H]1O[C@@H]12 (single isomer, unassigned; (-)) [(-)-Scopolamine N-oxide] | inactive: 1.22

Taken from above.
Entry for C=CCN1C[C@H](C)N([C@H](c2ccc(C(=O)N(CC)CC)cc2)c2cccc(OC)c2)C[C@H]1C under Z-score: inactive: -0.275
Entry for CC(C)N(CCC(C(N)=O)(c1ccccc1)c1ccccn1)C(C)C (stereo not given) [Disopyramide phosphate] under Z-score: inactive: -0.0303

(next part)

Structure (SMILES) | Z-score
CN1[C@@H]2CC[C@H]1C[C@@H](OC(=O)[C@H](CO)c1ccccc1)C2 [L-Hyoscyamine] | inactive: -0.503
CN1[C@@H]2CC[C@H]1C[C@@H](OC(=O)[C@H](CO)c1ccccc1)C2 [Hyoscyamine] | inactive: -0.746
CN[C@@H]1C[C@@H](c2ccc(Cl)c(Cl)c2)c2ccccc21 [Indatraline hydrochloride] | inactive: 0.448
O=[N+]([O-])c1cc(O)c(O)c([N+](=O)[O-])c1 [3,5-  Dinitrocatechol] | inactive: -0.152
C[C@H]([C@H](O)CCC(C)(C)O)[C@H]1CC[C@@]2(O)C3=CC(=O)[C@@H]4C[C@@H](O)[C@@H](O)C[C@]4(C)[C@H]3CC[C@]12C [Ecdysone] | inactive: -0.789
C#C[C@]1(O)CC[C@H]2[C@@H]3CCC4=Cc5nc6nc7ccccc7n6cc5C[C@]4(C)[C@H]3CC[C@@]21C | inactive: -0.117
NC(CCP(=O)(O)O)C(=O)O (racemic) [(±)-2-Amino-4-  phosphonobutyric acid] | inactive: -0.0685
O=C1C[C@@H]2OCC=C3CN4CC[C@]56c7ccccc7N1[C@H]5[C@H]2[C@H]3C[C@H]46 [Strychnine·HCl] | inactive: -0.577
CC[C@@]1(O)C(=O)OCc2c1cc1n(c2=O)Cc2cc3ccccc3nc2-1 [(S)-(+)-  Camptothecin] | inactive: 3.15
N=C(N)c1ccc(CS(=O)(=O)F)cc1 [4-  Amidinophenylmetha nesulfonyl fluoride hydrochloride] | inactive: 0.329
O=C(O)CNC(=O)c1c(O)c2ccccc2n(Cc2ccccc2)c1=O | active: -3.49
CC(CCc1ccccc1)NC(C)C(O)c1ccc(O)cc1 (stereo not given) [Nylidrin hydrochloride] | inactive: -0.43
COc1cccc(C2(O)CCCCC2CN(C)C)c1 (stereo not given) [Tramadol·HCl] | inactive: 0.134
CN1C[C@H](C(=O)N[C@]2(C)O[C@@]3(O)[C@@H]4CCCN4C(=O)[C@H](Cc4ccccc4)N3C2=O)C[C@@H]2c3cccc4[nH]cc(c34)C[C@H]21 [Dihydroergotamine Mesylate] | active: -2.4
CN1C[C@H](C(=O)N[C@]2(C)O[C@@]3(O)[C@@H]4CCCN4C(=O)[C@H](Cc4ccccc4)N3C2=O)C[C@@H]2c3cccc4[nH]cc(c34)C[C@H]21 [Dihydro ergotamine methanesulfonate] | inactive: -0.989
CC1C2Cc3ccc(O)cc3C1(C)CCN2CC1CC1 (single isomer, unassigned; (+)) [(+)-Cyclazocine] | inactive: 0.0662
C[N+]1(C)[C@@H]2CC[C@H]1C[C@@H](OC(=O)C(CO)c1ccccc1)C2 (stereo not given in full) [Atropine methyl bromide] | inactive: 0.463
C[N+]1(C)[C@@H]2CC[C@H]1C[C@@H](OC(=O)C(CO)c1ccccc1)C2 (stereo not given in full) [Atropine methyl nitrate] | inactive: 0.0564
C/C=C1/C[C@@H](C)[C@@](C)(O)C(=O)OCC2=CCN3CC[C@@H](OC1=O)[C@@H]23 [Senecionine] | inactive: 0.624
C[N+](C)(C)CCCCCCCCCC[N+](C)(C)C [Decamethonium dibromide] | inactive: 0.21
CC1=C(O)C(=O)C=C2C1=CC=C1[C@@]2(C)CC[C@@]2(C)[C@@H]3C[C@](C)(C(=O)O)CC[C@]3(C)CC[C@]12C [Celastrol] | inactive: -1.18

— the supplement of paper PMC8616043
